# According to PubChem BioAssay AID1347426 (Functional Genomics Laboratory (NCATS/FGL), 2020):
# Hit rate of the full screen: of about 31,000 sequences, about 1,400 (4.5%) were called active.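 How the source made its calls: active means median seed-adjusted z-score above 1 or below -1; inactive means the rest.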 The list shows a part of the results.
# Assay: Novel Modifiers of Survival Motor Neuron (SMN) Protein: Gene Identification via Genome-wide siRNA Screen;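 further: luminescence tracks full-length SMN protein made from the SMN2 reporter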
# Conditions: HEK293T SMN2-luciferase reporter, siRNA knockdown, 72 h; actives lie on both sides
# How it was run: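 siRNA screen, 10418 genes ×3 siRNAs; 1 pmol/well, lipid reverse transfection into HEK293T SMN2-luc reporter line. 72 h, 37 °C, 5% CO2; ONE-Glo readout. Data: neg-ctrl normalized, log10, MAD; hit = MAD >1.0 or < -1.0.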
row,Sequence,median seed-adjusted z-score
1,CGCAAAAAGUGGUCGUGGATT against TRMT1,inactive: -0.224
2,GCUGCGAGCUCGAAACUUUTT against SEC14L4,inactive: -0.714
3,ACCUGUUCAUGGUGCAUCATT against CHST13,inactive: -0.447
4,CGGGAGAGAUUAGAGCUCATT against PDE11A,inactive: 0
5,AGUUUGCAAAGUUCGCUUUTT against GPR162,inactive: 0.195
6,CCUGAUUAUUUAGACUCCATT against CMKLR1,inactive: -0.704
7,GCAAGAUAACAAUUGAUAUTT against ANKRD30A,inactive: 0.259
8,GGAUUCACACGGGAAUUAATT against ZNF649,inactive: 0.259
9,GGAUUGAUGUUAGUACUCATT against COPS5,inactive: -0.124
10,GAAGAUUCGCCGUUACAAATT against HDGF2,inactive: 0
11,GGAGCGGCACAGUAUGAAATT against MYO1E,inactive: -0.02
12,CGUUAACAGGCAGCAUAAATT against TICAM2,inactive: -0.256
13,GUCUCUAGAUCAUUCUGUUTT against LHX3,inactive: 0.622
14,GAUCUACACUUGUUCGGCATT against ZNF132,inactive: -0.484
15,GCUUCUACCUUGAGGUUAATT against ZNF549,inactive: 0.0114
16,GGAAUCAGUUGCAUGAAUATT against PPA1,inactive: -0.0865
17,CCACCGCAGUGACAACAGUTT against GPR20,inactive: 0.442
18,CCAGCUGCCUACAAAGACATT against CLDN14,inactive: -0.456
19,CCAUCGGAAUCUUGACGAATT against MX1,active: -1.49
20,GAUUAUCCCUGGUCCAAAATT against MYBPC1,inactive: 0.295
21,GACGAACACUUUCUCGUAUTT against SLC26A4,inactive: 0.274
22,ACAUGACACUGUGCAGGAATT against GPR120,inactive: -0.578

row,Sequence,median seed-adjusted z-score
1,UGGACUUCAUGAGUAUAAATT against PCTP,inactive: 0.446
2,GGAGGACCAUCGAGCUAAATT against GRIK5,inactive: -0.242
3,GGAUCGAGGGAAUCAAGAATT against ITPKB,inactive: -0.142
4,CAAGAAAAGUUAUAAGUUUTT against CYP3A7,inactive: -0.107
5,GGAUGUCCAAUUACCAAAATT against ZNF684,inactive: 0.189
6,CGUUUGUCCGUGCUAGAAATT against MTHFD1L,inactive: -0.0577
7,GACCCUCGGCGUCAUCUUUTT against NUDT14,inactive: 0.479
8,UGUGAAAUGUUUGUCUUUUTT against NR2F6,inactive: -0.681
9,GGGAUUCGAUGGAUUCUUUTT against PRICKLE1,inactive: -0.486
10,GGAGGAACUCAGGAACAAATT against CYB5R3,inactive: -0.901
11,CACUCAGCGUGGACCAUUUTT against HCN3,inactive: 0.301
12,GGGUUAGUGGAGACCUUUATT against ATPAF1,inactive: 0.393
13,CAAAAUCGAAUGAAGCUAATT against ERC1,inactive: 0.415
14,CAACCAGAGCGUGAAGAAATT against SNRPN,inactive: -0.571
15,CCAGGACUCAGAUUCCUCATT against CPEB1,inactive: -0.349
16,AGCUCUUUGGAUUCACUGATT against DDX11,inactive: 0
17,GCUAUUGCCCGGUAAGAAATT against ACPL2,inactive: 0.0392
18,GGAUGUAACAUACUCCUAUTT against ODF1,inactive: 0.912
19,AGUCUGUAGUGUUCAUCUATT against TWF2,inactive: 0.303
20,GGAACGUACUGGGACAACUTT against TINAGL1,inactive: -0.059
21,CCGGCUUCGUUUCAUGAAATT against CD8B,inactive: 0.174
22,CCAUAGACCUCAAAAACGATT against TRIM25,inactive: 0.859

# 3 entries from above, tab-delimited.
row	Sequence	median seed-adjusted z-score
1	UGGACUUCAUGAGUAUAAATT against PCTP	inactive: 0.446
2	GGAGGACCAUCGAGCUAAATT against GRIK5	inactive: -0.242
3	GGAUCGAGGGAAUCAAGAATT against ITPKB	inactive: -0.142

# Next part.

row,Sequence,median seed-adjusted z-score
1,CCUUCGUAGUGAUCUCAUUTT against BAZ1B,inactive: 0.00593
2,GCUGUGCCUUAUAACCGAATT against LRRK2,inactive: -0.671
3,AGGUCUGGACGACAACUAUTT against MST1,active: -1.47
4,GGAAUGACAAGGUACGUUUTT against TXK,inactive: -0.109
5,ACCGCUUCAUGUCUGCGUATT against SF3A2,active: -1.7
6,CCAUCUCAUUGUCUAAAUATT against PTGIR,inactive: -0.0806
7,CGGGAUGAACGGAUUGAAATT against COL18A1,inactive: -0.441
8,GAAUAAAAACGACCUCUUUTT against LZTR1,inactive: 0.293
9,GAGACAGAAACAAACCUUUTT against FKBP1B,inactive: -0.561
10,CACUCUGUCUAGAUACUCATT against LSM11,inactive: -0.873
11,GCCCUUACCAUAUUGGUCATT against 6-Mar,inactive: -0.483
12,CCACCCUGGUAGAUGAACATT against PGA5,inactive: -0.149
13,GGAACAUUUUCUUCGCAGATT against IREB2,inactive: 0
14,CACUAACAGUAGCGAAGGATT against HOXC8,inactive: -0.0285
15,GGAUGUACGUGAUAUGUAATT against SENP8,inactive: 0
16,UCAUAGAAAUUACACCCAATT against THBD,inactive: -0.16
17,CCGCUUCCCUCAAGAGUAATT against RPL4,inactive: 0.573
18,GAAUUCGUGUUCAUACUUUTT against SEC24A,inactive: 0.038
19,GGUAUUAUCAAAACCAGUATT against DDX19A,inactive: 0.183
20,GGUUGAUCGAUGUCAGUCATT against RIOK3,inactive: 0.0267
21,CAGACCUACUUAGAACAGATT against PARP3,inactive: -0.0383
22,GGAUCCCUAUGUUCGGAAATT against AP2B1,inactive: -0.214

# Nothing new here: entries from further up.
row,Sequence,median seed-adjusted z-score
19,AGUCUGUAGUGUUCAUCUATT against TWF2,inactive: 0.303
20,GGAACGUACUGGGACAACUTT against TINAGL1,inactive: -0.059

# Next part.

row,Sequence,median seed-adjusted z-score
1,CGAGGAUUUCGGUCAACAATT against B3GALT2,inactive: 0.031
2,GGACGGCUGCAAUCAAUGATT against IGF2R,inactive: 0.274
3,CGCCGACUCUAUUCAUGCATT against RAB22A,inactive: 0.321
4,CCACCGCUCUUUAACAUGATT against TAOK2,inactive: 0.28
5,CAAAUGGAGUGGACCUGAATT against CPN1,inactive: 0.17
6,GCAACACCUCUGAUCCUGATT against MTMR4,inactive: -0.735
7,GAAAGAGCAUAAGGACGAATT against HOXA7,inactive: -0.129
8,GGUACUUUGUGGUUAGUCUTT against MLSTD2,inactive: -0.294
9,GAUAUGACUCAUCCAUUAATT against PLCZ1,inactive: 0
10,AGAAAGGGCUGACAGAUGATT against PEX14,inactive: 0.844
11,CUUUAGAAGUUAUCAGGAATT against CAMK2N1,inactive: 0
12,CCCUCGUGGUGUUUGCUGUTT against SLC6A17,inactive: -0.41
13,GCAAUACACCUACCCAUAUTT against ARIH2,inactive: 0.0449
14,GGAAAUACCAGGAACAAGATT against RRAS,inactive: -0.102
15,AAUUCGCACUGGAGAGAAATT against ZNF43,inactive: 0.29
16,GGAAGUUCGUAGUUUAGAATT against CDON,inactive: 0.777
17,GAGUCUACAGUUAUACCAATT against PRKAA1,inactive: 0.0423
18,GAACGAUAUUGAACAGCUUTT against CCRK,inactive: -0.47
19,CCUGGAGAGUUACUUUGAATT against CCL23,inactive: -0.285
20,GGAAAUUGAUAGCAUACUATT against MXRA5,inactive: 0.104
21,GAACCCACCUAUUGCCUUUTT against ING4,inactive: -0.152
22,CCUACAAGAUGUGCCCUAUTT against CSDC2,inactive: -0.321

# Reformatted: entries from further up
row	Sequence	median seed-adjusted z-score
10	GAAGAUUCGCCGUUACAAATT against HDGF2	inactive: 0
11	GGAGCGGCACAGUAUGAAATT against MYO1E	inactive: -0.02

# Additional records follow.

row,Sequence,median seed-adjusted z-score
1,GAUUUGCACUCAGACAGAUTT against HIPK1,inactive: 0.69
2,GCAUGUCUCUAAUAUUCCUTT against RBM9,inactive: 0.895
3,GACCAGCAAUGCCUACGUATT against FLRT1,inactive: -0.00451
4,ACGGCAAGGUGUUCGAUGUTT against PGRMC1,inactive: 0.124
5,GAGGCUCAGUGUGGACAAATT against LMAN1,inactive: -0.118
6,UGAAAUACUUCAUACAUUATT against MORF4L1,inactive: 0.225
7,GACUUUGAGUCUAACGUGATT against ST3GAL1,inactive: 0.255
8,GCUCAAGAAGAGAUCUAUATT against GNL2,inactive: 0.739
9,GAUUUACCCAAAUCACUCATT against G6PC2,inactive: -0.0362
10,GGAUGCUUCGGAUGAGUUUTT against AK7,inactive: -0.702
11,GAGUCGCUUUAGCUCCGAATT against XPNPEP2,inactive: -0.158
12,GAGUGAGCCUUUAAAUCAUTT against ZNF652,inactive: 0
13,GCCUUGCGAAGUUUCAAGATT against STAT4,inactive: 0.734
14,GAAUCUCAAUUCCUUCUUUTT against RAPGEF3,inactive: -0.481
15,AGAUCAAGGUUCCGACGCATT against ABHD6,inactive: 0
16,GGAUCGAUUAUAACCGCUUTT against TYW1,inactive: 0.201
17,GCCUAUUUAUAUCCUGGUATT against GPR84,inactive: 0.285
18,GUACAUCCAGAUGAGCAUATT against TMEM147,inactive: 0.233
19,CUCUGUACUUGAUAUUUCATT against MS4A2,inactive: 0.155
